According to publication PMC6072134:
Results are given in words; binding and its absence hold for the method and conditions named. Binding seen in cells or lysates may run through a third protein. These calls come from enrichment with a bait or labelling near it, and not all partners need be listed. For some of these results: No binding means not detected with the bait. Sequences can lack the tags named with a protein.

Protein sequences, listed by entry. Tags and fused reporters are not part of them.
UniProt G5EBZ4: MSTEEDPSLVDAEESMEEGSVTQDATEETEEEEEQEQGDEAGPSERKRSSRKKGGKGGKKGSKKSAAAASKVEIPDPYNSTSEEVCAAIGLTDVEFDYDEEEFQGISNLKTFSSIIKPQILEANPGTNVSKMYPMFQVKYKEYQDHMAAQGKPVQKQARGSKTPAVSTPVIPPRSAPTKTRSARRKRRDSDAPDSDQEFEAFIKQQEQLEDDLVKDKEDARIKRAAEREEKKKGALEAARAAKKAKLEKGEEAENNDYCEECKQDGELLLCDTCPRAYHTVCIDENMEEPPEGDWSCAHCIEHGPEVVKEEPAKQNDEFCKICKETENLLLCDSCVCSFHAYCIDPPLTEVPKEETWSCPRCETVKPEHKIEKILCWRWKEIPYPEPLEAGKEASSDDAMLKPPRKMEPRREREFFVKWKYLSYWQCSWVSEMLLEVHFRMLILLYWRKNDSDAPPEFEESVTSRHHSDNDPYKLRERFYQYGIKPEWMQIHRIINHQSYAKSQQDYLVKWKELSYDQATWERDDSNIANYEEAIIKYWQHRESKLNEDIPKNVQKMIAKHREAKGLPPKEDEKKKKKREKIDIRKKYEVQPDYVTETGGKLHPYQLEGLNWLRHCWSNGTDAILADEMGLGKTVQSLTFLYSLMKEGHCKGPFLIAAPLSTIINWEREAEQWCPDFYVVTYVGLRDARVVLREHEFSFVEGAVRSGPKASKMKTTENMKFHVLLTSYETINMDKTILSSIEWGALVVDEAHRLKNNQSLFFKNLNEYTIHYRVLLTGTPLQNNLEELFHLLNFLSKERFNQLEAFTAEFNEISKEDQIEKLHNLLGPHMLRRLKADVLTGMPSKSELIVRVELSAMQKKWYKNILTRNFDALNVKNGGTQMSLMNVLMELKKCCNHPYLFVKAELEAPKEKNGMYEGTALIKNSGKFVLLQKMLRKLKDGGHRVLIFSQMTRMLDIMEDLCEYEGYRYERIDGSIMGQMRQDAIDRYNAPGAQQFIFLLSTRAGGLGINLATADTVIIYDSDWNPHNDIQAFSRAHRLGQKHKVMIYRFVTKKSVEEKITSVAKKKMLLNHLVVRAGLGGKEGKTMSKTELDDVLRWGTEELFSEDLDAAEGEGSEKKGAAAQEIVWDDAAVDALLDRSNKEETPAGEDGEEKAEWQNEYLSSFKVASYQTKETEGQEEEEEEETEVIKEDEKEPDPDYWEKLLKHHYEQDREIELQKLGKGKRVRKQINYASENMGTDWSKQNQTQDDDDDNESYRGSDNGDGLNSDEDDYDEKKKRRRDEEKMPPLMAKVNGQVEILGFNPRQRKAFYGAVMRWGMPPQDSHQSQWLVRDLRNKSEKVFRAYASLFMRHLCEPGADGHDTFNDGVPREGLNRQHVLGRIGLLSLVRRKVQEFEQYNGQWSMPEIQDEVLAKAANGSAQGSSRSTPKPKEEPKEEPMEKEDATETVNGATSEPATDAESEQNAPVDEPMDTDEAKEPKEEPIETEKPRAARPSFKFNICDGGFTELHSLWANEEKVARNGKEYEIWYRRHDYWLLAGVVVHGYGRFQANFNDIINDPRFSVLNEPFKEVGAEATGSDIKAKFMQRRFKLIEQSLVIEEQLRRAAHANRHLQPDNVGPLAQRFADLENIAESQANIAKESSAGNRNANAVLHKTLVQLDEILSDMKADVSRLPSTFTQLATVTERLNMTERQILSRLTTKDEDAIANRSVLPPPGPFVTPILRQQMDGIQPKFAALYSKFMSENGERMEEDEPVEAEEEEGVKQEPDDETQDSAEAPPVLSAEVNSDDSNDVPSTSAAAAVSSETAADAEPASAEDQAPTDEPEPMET
UniProt P90916: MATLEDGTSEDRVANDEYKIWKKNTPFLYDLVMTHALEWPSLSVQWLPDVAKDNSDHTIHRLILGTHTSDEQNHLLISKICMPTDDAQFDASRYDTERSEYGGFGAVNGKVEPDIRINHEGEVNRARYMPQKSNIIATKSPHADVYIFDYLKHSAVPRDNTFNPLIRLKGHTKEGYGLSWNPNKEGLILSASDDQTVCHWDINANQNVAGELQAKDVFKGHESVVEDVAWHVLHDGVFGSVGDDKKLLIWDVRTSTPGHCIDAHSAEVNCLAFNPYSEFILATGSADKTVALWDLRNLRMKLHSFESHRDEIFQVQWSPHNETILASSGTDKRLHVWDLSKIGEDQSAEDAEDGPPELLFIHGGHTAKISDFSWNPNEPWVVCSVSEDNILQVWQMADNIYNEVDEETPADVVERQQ
UniProt O17695: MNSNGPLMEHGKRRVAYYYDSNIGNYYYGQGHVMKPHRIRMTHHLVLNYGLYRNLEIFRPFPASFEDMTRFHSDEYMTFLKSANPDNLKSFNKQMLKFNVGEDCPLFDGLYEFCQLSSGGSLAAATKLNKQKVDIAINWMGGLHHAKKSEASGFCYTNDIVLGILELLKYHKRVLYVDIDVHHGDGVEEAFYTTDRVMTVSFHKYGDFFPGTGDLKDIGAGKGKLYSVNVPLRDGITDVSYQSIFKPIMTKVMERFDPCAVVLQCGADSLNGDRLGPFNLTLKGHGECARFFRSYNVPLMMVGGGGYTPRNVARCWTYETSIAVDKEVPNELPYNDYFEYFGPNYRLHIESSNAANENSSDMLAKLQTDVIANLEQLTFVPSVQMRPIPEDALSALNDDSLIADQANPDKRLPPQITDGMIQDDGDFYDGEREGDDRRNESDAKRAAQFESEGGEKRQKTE

T1: AKIR-1::GFP (C. elegans) (UniProt Q966L3)
T1 sequence: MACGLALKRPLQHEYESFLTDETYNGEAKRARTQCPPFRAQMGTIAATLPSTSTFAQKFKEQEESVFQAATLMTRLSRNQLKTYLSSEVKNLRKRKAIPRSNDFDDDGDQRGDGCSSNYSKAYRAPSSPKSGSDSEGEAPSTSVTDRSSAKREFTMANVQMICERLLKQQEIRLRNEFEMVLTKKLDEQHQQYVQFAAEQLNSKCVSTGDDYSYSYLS

B1: MEP-1 (protein, UniProt Q21502 1-870)
chain: MVTADETVLATTTNTTSMSVEPTDPRSAGESSSDSEPDTIEQLKAEQREVMADAANGSEVNGNQENGKEEAASADVEVIEIDDTEESTDPSPDGSDENGDAASTSVPIEEEARKKDEGASEVTVASSEIEQDDDGDVMEITEEPNGKSEDTANGTVTEEVLDEEEPEPSVNGTTEIATEKEPEDSSMPVEQNGKGVKRPVECIELDDDDDDEIQEISTPAPAKKAKIDDVKATSVPEEDNNEQAQKRLLDKLEEYVKEQKDQPSSKSRKVLDTLLGAINAQVQKEPLSVRKLILDKVLVLPNTISFPPSQVCDLLIEHDPEMPLTKVINRMFGEERPKLSDSEKRERAQLKQHNPVPNMTKLLVDIGQDLVQEATYCDIVHAKNLPEVPKNLETYKQVAAQLKPVWETLKRKNEPYKLKMHRCDVCGFQTESKLVMSTHKENLHFTGSKFQCTMCKETDTSEQRMKDHYFETHLVIAKSEEKESKYPCAICEEDFNFKGVREQHYKQCKKDYIRIRNIMMPKQDDHLYINRWLWERPQLDPSILQQQQQAALQQAQQKKQQQLLHQQQAAQAAAAAQLLRKQQLQQQQQQQQARLREQQQAAQFRQVAQLLQQQSAQAQRAQQNQGNVNHNTLIAAMQASLRRGGQQGNSLAVSQLLQKQMAALKSQQGAQQLQAAVNSMRSQNSQKTPTHRSSKLVTTPSHATVGSSSAPTFVCEICDASVQEKEKYLQHLQTTHKQMVGKVLQDMSQGAPLACSRCRDRFWTYEGLERHLVMSHGLVTADLLLKAQKKEDGGRCKTCGKNYAFNMLQHLVADHQVKLCSAEIMYSCDVCAFKCSSYQTLEAHLTSNHPKGDKKTSTPAKKDDCITLDD
B2: STA-2 (protein, UniProt Q20977 1-567)
chain: MSSVVSDQMDIESSSAFSPAEPVVDGAFVSKHNLSAEAYQGFKECADSLLSGKIAQNEQLPFIQRTLQICENVILNFEDEKQHLMSDVLLVWAMKQQKLSIATLHTQQLHYKELDLINLQFEYFGELLQQTLSGLDYLKQYYPNVGFEEVHSKVRNLTHYFLYYSIIVSRQPPSVIVKCGEAENHRRSRFWFNTEIRILGGSAFGIDTNNENSNVNCYLITDETAKQLLNNAYLDIFESEEFCIEPNTSTFQKKDARGIKAKFDDMKVAKKVALRRDSVATKRYCLCYNIQLQTNCGIELVGKKVSLPFAVLVGPKADVEAKLFLERSFADLVRHPLSDIPTHVSCAEMADALEMKFQAIIETPQKNTDGPSVVQPRKFNMQTKQHLVMRMKPNNQGFLPLDNFMKLPVAEEFQHKKSASAEGDWKLVPFYDWFFKLAEITNKYLYSMWYDGLVYGFCSKEDAENILRCIPRSVLLVRFSDIEYGKIKISVKNRNGEIRHHWYEHADLNARSLNSELLSNHKFSDVDLIYPDIDLEVALGGRNKPRIRLPRNLAPDEIYFDNQGAAT
B3: PMK-1 (protein, UniProt Q17446 1-377)
chain: MFPQTTMDHILHPTPREGYYVVELNRSVWVVPNYYINLTPIGTGAYGTVCAAECTRSGTRVAIKKFNRPFQSIIHARRTYRELRLLRCMCHENIIDLLDVFTPNENVNDIEDVYFVSMLMGADLSNILKIQRLNDDHIQFLVYQILRGLKYIHSADIIHRDLKPSNIAVNEDCELKILDFGLARQTDSEMTGYVATRWYRAPEIMLNWMHYTQTVDVWSVGCILAELITGKTLFPGSDHIDQLTRIMSVTGTPDEEFLKKISSEEARNYIRNLPKMTRRDFKRLFAQATPQAIDLLEKMLHLDPDRRPTAKEAMEHEYLAAYHDETDEPIAEEMDLNDDVRADTIDEWKKIIWEEISDFQKNVAFADEEEDEEKMES
B4: PMK-3 (protein, UniProt O44514 1-474)
chain: MASVPSSSSLPVSHVRRHEDVSTPSAPPTKRSNNQSQPPESYEPNTWLQQQREQEQQKKLAAENIKKQSIEATGNNEMVGEEEEDILSKPCGPHKRRFQFVMIRNITFAIPEGYDVEPNSIEYLGGGSFGNVIKTSAVCRDGLRRYVAIKKMREPFFDPHHARRIFRETKLLQLMRHDNIICALDIYTPDEENDFRDVYVVTEFAGRSLYQILKQQRDYGRRVLTDEHIKFIIYQIIRALKYIHSANIIHRDLKPGNLALTDDSDLMILDFGLARSLEKKDTSLTQYVQTRWYRSPEVIYWKIDSYTNLADMWSLGCIAAELLTGEPLFPGDEPNAQYQRITQLCGSPDEELLTKIENDNSSAIKAVIQSYTTHKRRNFRDVFSAHNPSEDFIDLLEKLLVLDPEKRITVEEAIQHPYLAEFSLPEDEPRADHIFDLDDSQARTRFEWRDAVWKEIMNYKRLSSSPLIPGEADR
B5: CEH-18 (protein, UniProt P41934 1-542)
chain: MNTLENTFQFLAEVFEANGGCLVTERVSPSLSGASKRKSRPVKRIITEDEVIPEEEVVEEEEEEKVEQPSEEVTCPAMQVDATDAILASLRQIANNDLSEHCIREDEGNTSAEVFSNGNGEDMEQAGLAGTDLLRRVADMLQGNHNGSLNSHFLQQQFAAFKETVDPTPVSTNGNGLLTPITTQLSPLFTSTDAFNSPEKLLQAIMTPSLGFLGANGLGASNSGLLSSPLIAPSPTLLQSLMNTPTQPTASLTPKKAENRPPVVSQTLKASKRRLFDDTSRIEAASMSGDDRIDMNELEAFAQTFKKQRIKFGFTQGDVGVALGKRYGTDFSQTTISRFEALNLSFKNMCKLRPLLKEWLADVEMAIEGGATVTDLIDKKTIHNGNHHTIHHVDIHETSISNSISSVTASSLLSREQHVKRRRKRTNLDMNQRNALDTFFALNPRPDHDKMTDIANSLELDRDVVRVWFCNRRQKMRRVDEPIEGEMVTPSVSPVFPHFSSMSALEQIQEAARLASCQASNDDSDGTSGSPDAPSNDGCSDL
B6: DCP-66 (protein, UniProt G5ED89 1-724)
chain: MAQVQQVPSSPMNGIPEKNGNGLSIEESASTAVAALAHIQNGAVLFHGTPTKDLNGASTSIDTDDLQLSPSDLRRRSTRASALKAQEKIKLKDDIVQGPQKRANDDDDMEDEELGDEINEQSAPKKRRLENGKEFDQTCFRFGLRANNEGEVYAMTDESENSSIHESEMEVVRYHYEKMKNKEPDEEQLRERLNMRREAENQLREEEAKLLVLRKMKDSQTRAITKLAAETKAADLAEATSAAYKPAVATNGKSVTNGKNSMIESNNKTMNGLKNLSIPQQLELLQKLSSQSPAAKQAYIMAKKNPAQTTQLFQQLITINNQNLQKQKELSAAETNASASASPAVQQSQQAQQPQQAQITQSKLLNQQTPAQRIQAARLAFRAQADKQLTTIPTQKSQPHDITFLPNPNASAFLALHGLDLVVQHVLKDRSNETPYAGPSYECEECKTECAHTWKAIGSTQDDLHLYCENCVRSAQKRKNRTDQTALLKRAFQKITAQEKLLQEFEKKIAEGQLEQYAEAKAAAPATSQTIPTSSTATVSSIPLVPRLPQIPSSTGSSTPTQAVKTSTPIHSTPKSSSSSAKKTAAQLQQQSMQGMNQLFSTAMLRNNPQMQQMLQMYQALAMGGGAANMANNQMAMLFQAQAMQAAQAQVARAQAAKAQAAQAQAAQAQAQAQANREANQQSMLIQALMSNGQVNVQALQQLQKLTPEQQKALIEVVKRQTRK

Target: T1, AKIR-1::GFP (C. elegans)
Experiment: affinity purification with mass spectrometry; AKIR-1::GFP captured on anti-GFP agarose beads (NanoTrap) against blocked control beads, from cleared lysates of mixed-stage worms carrying akir-1p::AKIR-1::gfp, uninfected or infected with D. coniospora for 16 h at 25°C; 4°C, washes up to 300 mM NaCl; label-free quantitative LC-MS/MS, 3 independent experiments

binding | Molecule
binds | B1
no binding | B2
no binding | B3
binds | B4
binds | B5
binds | B6

Target: T1, AKIR-1::GFP (C. elegans)
Experiment: as above
Remark: another data set of the same source

binding | Molecule
binds | LET-418 (from UniProt G5EBZ4 1-1829)
binds | LIN-53 (from UniProt P90916 1-417)
binds | HDA-1 (from UniProt O17695 1-461)
binds | LIN-40
